Assay results as given in PubChem BioAssay AID330 (DTP/NCI, 2004).
The list shows only some results of the screen, not a fair sample: it is rich in T/C values a quarter to a half above the control, in often repeated tests (any T/C) and in doses without a T/C. Further doses and runs are listed elsewhere. T/C gives the treated animals as a percentage of the vehicle group. Some entries give survivors of the animals treated and no T/C: the source holds a T/C of zero for them, seemingly a mark for toxic or unscored doses. Some doses without a T/C left all or most animals alive at the check, yet need not have been tolerated: the source hardly ever lists a survival T/C far under the control, and the zero likely stands for such cases as well. Counts of survivors are from the toxicity check (mostly the fifth day) where no day follows; animals may have died later. Schedules are NCI's codes, read here as Q, the interval in days (D) or hours (H), X, the number of doses. Some entries hold several experiments; the values are given in rising order. Brackets with × give the number of equal values in this list. For survival time, the PubChem record calls one and a half times the control and up active, and a quarter to a half above the control has no call in these data; cut-offs in other NCI protocols can differ. Some T/C values are followed by the survivors on the day toxicity was checked, most often the fifth; where none is given, no animal had died by that day.

System: P388 leukemia ip, CD2F1 mice, survival T/C
Experiment: NCI In Vivo Anticancer Drug Screen. Data for tumor model P388 Leukemia (intraperitoneal) in CD2F1 (CDF1) mice
Conditions: T/C endpoint: median survival time, higher T/C = longer survival
[1] = dose: 200.0 micrograms/kg/injection, schedule: Q01DX009 (ip), vehicle: saline + alcohol

## Cc1c2oc3c(C)ccc(C(=O)N[C@@H]4C(=O)N[C@H](C(C)C)C(=O)N5CCC[C@H]5C(=O)N(C)CC(=O)N(C)[C@@H](C(C)C)C(=O)O[C@H]4C)c3nc-2c(C(=O)N[C@@H]2C(=O)N[C@H](C(C)C)C(=O)N3CCC[C@H]3C(=O)N(C)CC(=O)N(C)[C@@H](C(C)C)C(=O)O[C@H]2C)c(N)c1=O
dose: 0.33 mg/kg/injection, schedule: Q01DX001 (ip), vehicle: saline, evaluated on day 30
  T/C: 172 % of control
dose: 0.33 mg/kg/injection, schedule: Q01DX001 (ip), vehicle: saline, evaluated on day 45
  T/C: 150 and 166 % of control
dose: 0.33 mg/kg/injection, schedule: Q01DX001 (ip), vehicle: saline, evaluated on day 60
  T/C: 141, 151, 152, 155 % of control
dose: 0.4 mg/kg/injection, schedule: Q01DX001 (ip), vehicle: water, evaluated on day 5
  T/C: 90, 161, 201 % of control
dose: 0.4 mg/kg/injection, schedule: Q01DX001 (ip), vehicle: water, evaluated on day 35
  T/C: 90 % of control [7 of 8 alive]
dose: 0.4 mg/kg/injection, schedule: Q01DX001 (ip), vehicle: water, evaluated on day 45
  T/C: 201 % of control [7 of 8 alive]
dose: 0.5 mg/kg/injection, schedule: Q01DX001 (ip), vehicle: saline, evaluated on day 30
  T/C: 181 % of control [9 of 10 alive]
dose: 0.5 mg/kg/injection, schedule: Q01DX001 (ip), vehicle: saline, evaluated on day 45
  T/C: 156 and 160 % of control
dose: 0.5 mg/kg/injection, schedule: Q01DX001 (ip), vehicle: saline, evaluated on day 60
  T/C: 143 [9 of 10 alive], 154, 157, 161, 163, 169 % of control
dose: 0.5 mg/kg/injection, schedule: Q01DX001 (ip), vehicle: water, evaluated on day 5
  T/C: 72 and 203 % of control
dose: 0.5 mg/kg/injection, schedule: Q01DX001 (ip), vehicle: water, evaluated on day 45
  T/C: 203 % of control
dose: 0.5 mg/kg/injection, schedule: Q01DX001 (ip), vehicle: water
  survivor count: 8 of 8
dose: 0.5 mg/kg/injection, schedule: Q01DX009 (ip), vehicle: water
  survivor count: 0 of 3
dose: 0.6 mg/kg/injection, schedule: Q04DX003 (ip), vehicle: saline + alcohol
  survivor count: 2 of 8
dose: 0.75 mg/kg/injection, schedule: Q01DX001 (ip), vehicle: saline, evaluated on day 5
  T/C: 182 % of control
dose: 0.75 mg/kg/injection, schedule: Q01DX001 (ip), vehicle: saline, evaluated on day 30
  T/C: 186 % of control [8 of 10 alive]
dose: 0.75 mg/kg/injection, schedule: Q01DX001 (ip), vehicle: saline, evaluated on day 45
  T/C: 185 and 192 % of control
dose: 0.75 mg/kg/injection, schedule: Q01DX001 (ip), vehicle: saline, evaluated on day 60
  T/C: 169, 171 [9 of 10 alive], 172, 175, 176, 182 % of control
dose: 1.0 mg/kg/injection, schedule: Q01DX009 (ip), vehicle: water
  survivor count: 0 of 3
dose: 1.0 mg/kg/injection, schedule: Q04DX002 (ip), vehicle: saline + alcohol
  survivor count: 8 of 8
dose: 6.25 micrograms/kg/injection, schedule: Q01DX009 (ip), vehicle: saline + alcohol
  T/C: 120, 134, 144, 154 % of control
dose: 6.25 micrograms/kg/injection, schedule: Q01DX009 (ip), vehicle: saline
  T/C: 147 % of control
dose: 6.3 micrograms/kg/injection, schedule: Q01DX005 (ip), vehicle: saline + alcohol
  T/C: 133 % of control
dose: 6.3 micrograms/kg/injection, schedule: Q01DX009 (ip), vehicle: saline, evaluated on day 30
  T/C: 124, 140, 148, 156 % of control
dose: 6.3 micrograms/kg/injection, schedule: Q01DX009 (ip), vehicle: saline, evaluated on day 35
  T/C: 141 % of control
dose: 6.3 micrograms/kg/injection, schedule: Q01DX009 (ip), vehicle: water, evaluated on day 30
  T/C: 97, 129, 135 [5 of 6 alive], 136, 137, 148, 152 (2×), 161, 189 % of control
dose: 6.3 micrograms/kg/injection, schedule: Q01DX009 (ip), vehicle: water, evaluated on day 35
  T/C: 134 and 160 % of control
dose: 12.5 micrograms/kg/injection, schedule: Q01DX005 (ip), vehicle: saline + alcohol
  T/C: 134 % of control
dose: 12.5 micrograms/kg/injection, schedule: Q01DX009 (ip), vehicle: saline + alcohol
  T/C: 143, 145, 152, 153, 174 % of control
dose: 12.5 micrograms/kg/injection, schedule: Q01DX009 (ip), vehicle: saline, evaluated on day 30
  T/C: 137, 144, 157, 163, 166 % of control (2×)
dose: 12.5 micrograms/kg/injection, schedule: Q01DX009 (ip), vehicle: saline, evaluated on day 35
  T/C: 146 % of control
dose: 12.5 micrograms/kg/injection, schedule: Q01DX009 (ip), vehicle: water, evaluated on day 30
  T/C: 106, 134, 136, 147, 151, 155, 157, 158, 163 (2×), 168, 175, 181 (2×), 189, 203, 218 % of control
dose: 12.5 micrograms/kg/injection, schedule: Q01DX009 (ip), vehicle: water, evaluated on day 35
  T/C: 148 and 154 % of control
dose: 12.5 micrograms/kg/injection, schedule: Q01DX009 (ip), vehicle: water, evaluated on day 45
  T/C: 167 % of control
dose: 13.0 micrograms/kg/injection, schedule: Q01DX009 (ip), vehicle: water
  T/C: 166, 188, 189, 237 % of control
dose: 25.0 micrograms/kg/injection, schedule: Q01DX005 (ip), vehicle: saline + alcohol
  T/C: 140 % of control
dose: 25.0 micrograms/kg/injection, schedule: Q01DX009 (ip), vehicle: saline + alcohol
  T/C: 153, 156, 162 (2×), 186 % of control
dose: 25.0 micrograms/kg/injection, schedule: Q01DX009 (ip), vehicle: saline, evaluated on day 30
  T/C: 150, 155, 166, 168, 208, 246 % of control
dose: 25.0 micrograms/kg/injection, schedule: Q01DX009 (ip), vehicle: saline, evaluated on day 35
  T/C: 151 % of control
dose: 25.0 micrograms/kg/injection, schedule: Q01DX009 (ip), vehicle: water, evaluated on day 30
  T/C: 108, 114, 141, 152 (2×), 161, 168, 170, 173, 181, 186 [5 of 6 alive], 187, 194, 200, 206, 215, 245 (2×), 263 % of control
dose: 25.0 micrograms/kg/injection, schedule: Q01DX009 (ip), vehicle: water, evaluated on day 35
  T/C: 150 and 196 % of control
dose: 25.0 micrograms/kg/injection, schedule: Q01DX009 (ip), vehicle: water, evaluated on day 45
  T/C: 183 % of control
dose: 25.0 micrograms/kg/injection, schedule: Q01DX009 (ip), vehicle: water
  survivor count: 6 of 6
dose: 50.0 micrograms/kg/injection, schedule: Q01DX009 (ip), vehicle: saline + alcohol, evaluated on day 30
  T/C: 155, 171, 185, 196, 232 % of control
dose: 50.0 micrograms/kg/injection, schedule: Q01DX009 (ip), vehicle: saline + alcohol, evaluated on day 35
  T/C: 179 % of control
dose: 50.0 micrograms/kg/injection, schedule: Q01DX009 (ip), vehicle: saline, evaluated on day 30
  T/C: 153, 172, 194 [5 of 6 alive], 205, 206, 225 % of control
dose: 50.0 micrograms/kg/injection, schedule: Q01DX009 (ip), vehicle: saline, evaluated on day 35
  T/C: 164 % of control
dose: 50.0 micrograms/kg/injection, schedule: Q01DX009 (ip), vehicle: water, evaluated on day 30
  T/C: 100, 107, 124, 136, 159 [5 of 6 alive], 178, 180, 218, 222, 225, 227, 235, 250, 252, 267 % of control
dose: 50.0 micrograms/kg/injection, schedule: Q01DX009 (ip), vehicle: water, evaluated on day 35
  T/C: 179 and 285 % of control
dose: 50.0 micrograms/kg/injection, schedule: Q01DX009 (ip), vehicle: water, evaluated on day 45
  T/C: 293 % of control
dose: 50.0 micrograms/kg/injection, schedule: Q01DX009 (ip), vehicle: water
  survivor count: 5 of 6 and 6 of 6
dose: 64.8 micrograms/kg/injection, schedule: Q04DX003 (ip), vehicle: saline + alcohol
  T/C: 130 % of control
dose: 100.0 micrograms/kg/injection, schedule: Q01DX005 (ip), vehicle: saline + alcohol
  survivor count: 6 of 6
dose: 100.0 micrograms/kg/injection, schedule: Q01DX009 (ip), vehicle: saline + alcohol
  T/C: 94, 119, 166, 180, 198 % of control
dose: 100.0 micrograms/kg/injection, schedule: Q01DX009 (ip), vehicle: saline, evaluated on day 30
  T/C: 91, 185, 188, 200, 224 % of control
dose: 100.0 micrograms/kg/injection, schedule: Q01DX009 (ip), vehicle: saline, evaluated on day 35
  T/C: 241 % of control
dose: 100.0 micrograms/kg/injection, schedule: Q01DX009 (ip), vehicle: water, evaluated on day 30
  T/C: 101, 131, 133, 150, 176, 243, 247 [2 of 3 alive], 272, 279 % of control
dose: 100.0 micrograms/kg/injection, schedule: Q01DX009 (ip), vehicle: water, evaluated on day 35
  T/C: 196 % of control
dose: 100.0 micrograms/kg/injection, schedule: Q01DX009 (ip), vehicle: water, evaluated on day 45
  T/C: 88 % of control
dose: 100.0 micrograms/kg/injection, schedule: Q01DX009 (ip), vehicle: water
  survivor count: 0 of 6, 4 of 6, 5 of 6, 6 of 6 (2×)
dose: 108.0 micrograms/kg/injection, schedule: Q04DX003 (ip), vehicle: saline + alcohol
  T/C: 135 and 142 % of control
dose: 180.0 micrograms/kg/injection, schedule: Q04DX003 (ip), vehicle: saline + alcohol
  T/C: 148 % of control
[1]
  T/C: 243 and 254 % of control
  survivor count: 5 of 6 and 6 of 6
dose: 200.0 micrograms/kg/injection, schedule: Q01DX009 (ip), vehicle: saline, evaluated on day 30
  T/C: 94 % of control
dose: 200.0 micrograms/kg/injection, schedule: Q01DX009 (ip), vehicle: saline, evaluated on day 35
  T/C: 315 % of control
dose: 200.0 micrograms/kg/injection, schedule: Q01DX009 (ip), vehicle: saline
  survivor count: 5 of 6 and 6 of 6 (2×)
dose: 200.0 micrograms/kg/injection, schedule: Q01DX009 (ip), vehicle: water, evaluated on day 30
  T/C: 100 and 143 % of control
dose: 200.0 micrograms/kg/injection, schedule: Q01DX009 (ip), vehicle: water, evaluated on day 35
  T/C: 273 % of control
dose: 200.0 micrograms/kg/injection, schedule: Q01DX009 (ip), vehicle: water
  survivor count: 0 of 6, 3 of 6, 3 of 3, 6 of 6 (2×)
dose: 400.0 micrograms/kg/injection, schedule: Q01DX009 (ip), vehicle: saline + alcohol
  survivor count: 4 of 6, 5 of 6, 6 of 6
dose: 400.0 micrograms/kg/injection, schedule: Q01DX009 (ip), vehicle: saline
  survivor count: 3 of 6, 4 of 6, 5 of 6, 6 of 6
dose: 400.0 micrograms/kg/injection, schedule: Q01DX009 (ip), vehicle: water
  survivor count: 0 of 6 (2×), 1 of 6, 2 of 6, 2 of 3, 5 of 6
